# No constants are given. Whether binding was seen depends on the method and setting. Some binding calls cover weakened binding; strength is not graded here. Where a sequence is shown, tags or fusion partners need not be part of it.
# The chains behind the UniProt entries cited, without tags or fusion partners.
# UniProt Q96LA8: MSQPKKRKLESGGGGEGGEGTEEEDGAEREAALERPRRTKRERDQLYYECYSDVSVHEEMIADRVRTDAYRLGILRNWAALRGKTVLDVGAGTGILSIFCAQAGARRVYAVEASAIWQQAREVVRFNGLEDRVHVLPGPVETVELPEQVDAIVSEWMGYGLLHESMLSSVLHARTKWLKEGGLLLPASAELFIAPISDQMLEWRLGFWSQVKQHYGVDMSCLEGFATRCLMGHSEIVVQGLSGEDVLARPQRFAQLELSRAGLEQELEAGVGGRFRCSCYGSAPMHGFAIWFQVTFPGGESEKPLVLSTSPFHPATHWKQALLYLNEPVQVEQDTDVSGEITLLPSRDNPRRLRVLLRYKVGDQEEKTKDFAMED
# Biological target: T1, GST-RBM39 (UniProt Q14498)
# T1 sequence: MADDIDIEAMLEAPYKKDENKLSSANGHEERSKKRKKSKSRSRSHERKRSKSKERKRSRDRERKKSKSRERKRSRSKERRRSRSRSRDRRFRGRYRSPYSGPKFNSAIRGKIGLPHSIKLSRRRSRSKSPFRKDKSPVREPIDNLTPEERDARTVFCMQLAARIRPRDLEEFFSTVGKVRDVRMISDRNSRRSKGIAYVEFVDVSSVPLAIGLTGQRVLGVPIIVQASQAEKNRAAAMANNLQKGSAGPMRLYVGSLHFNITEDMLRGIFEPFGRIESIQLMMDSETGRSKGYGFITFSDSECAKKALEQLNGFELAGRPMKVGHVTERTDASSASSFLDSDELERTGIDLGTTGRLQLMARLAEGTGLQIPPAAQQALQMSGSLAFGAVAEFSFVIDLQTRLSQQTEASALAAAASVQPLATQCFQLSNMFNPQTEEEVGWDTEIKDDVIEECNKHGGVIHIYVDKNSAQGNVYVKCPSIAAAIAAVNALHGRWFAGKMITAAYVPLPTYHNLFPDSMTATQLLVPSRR
# Test: pull-down; GST or GST-tagged protein on glutathione-sepharose beads, incubated with His-tagged protein for 4 hours at 4 °C; immunoblotting with anti-His/GST antibody; both purified
substance,measurement,value
His-PRMT6 (from UniProt Q96LA8 1-375) (enzyme),binding,binds
